# Primary screen of a compound library

Measurements from “University of Dundee, Small-Polar-MMV Screening Library” (2021), ChEMBL document CHEMBL3988442.

A: 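Phenotypic screen: M. tuberculosis growth, cholesterol and DPPC medium, 4 days; the read-out is not stated. Tested at 50 µM. Direction is inferred from retests: higher values go with more growth inhibition. Size under these conditions: about 69,000 compounds, about 370 of them at 50% or above in at least one test.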
B: 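Phenotypic screen: M. tuberculosis growth, glucose 7H9 medium, 3 days; the read-out is not stated. Concentration: 50 µM. The record gives no direction; compounds that gave an IC50 in retests scored well above the rest, so higher reads as more growth inhibition. About 69,000 compounds were tested under these conditions; 1.1% (about 760) showed 50% or more at least once.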

Values are the deposited “Percent Effect”, in %. The controls that fix the scale are not given in the record; negative values are as filed. Compounds were drawn at random from those tested, without regard to their results. Two or more numbers in one place are separate tests of the same structure; such repeats can differ widely.

With CCC(C)(NC(=O)CCN1CCOC1=O)C(=O)OC (stereo unspecified) the screen gave A: 11.64%; B: -13.08%.
With Cc1cc(C)n(CCCNc2ncnc3c2NC(=O)CN3)n1 the screen gave A: 11.9%; B: 11.14%.
With COC(=O)c1ccc(N2CCC(N(C)c3ccccc3)CC2)nn1 the screen gave A: 110%; B: 116.1%.
With CC(C)CC(NC(=O)c1cccs1)c1nc2cccnc2n1C (stereo unspecified) the screen gave A: -11.42%; B: 16.2%.
With Cc1nccn1-c1ccc(NC(=O)C2CCCN2Cc2ccoc2)cc1 (stereo unspecified) the screen gave A: -0.1347%; B: -4.472%.
With Cc1c[nH]c(C2CCCN(C(=O)CCc3c(C)n[nH]c3C)C2)n1 (stereo unspecified) the screen gave A: -8.731% and -10.82%; B: -15.75%.
With CSc1cccc(NC(=O)CCC(=O)Nc2nccs2)c1 the screen gave A: -19.2%; B: 4.462% and -6.697%.
With O=C(O)C(F)(F)F.[H][C@@]12CN(c3ccccn3)C[C@@]1([H])N(CC(=O)N(C)C)C(=O)CO2 the screen gave A: -0.5134%; B: -4.104% and -8.312%.
With CN(c1ncccc1C#N)C1CCN(CCc2ccncc2)CC1 the screen gave A: -1.315%; B: -1.696%.
With CCC(O)CNc1nccc(-c2ccc(C)nc2C)n1 (stereo unspecified) the screen gave A: 4.553%; B: -12.89% and 3.066%.
With COc1ccccc1OC1CN(C(=O)c2ccccc2C(C)=O)C1 the screen gave A: 13.97%; B: 2.773%.
With CCN(Cc1ccc2c(c1)OCO2)Cc1nc(C)no1 the screen gave A: -14.18%; B: -8.504%.
With O=C(O)C(F)(F)F.[H][C@]12CCN(Cc3ccc(CC)o3)C[C@@]1([H])OCCN(S(C)(=O)=O)C2 the screen gave A: -14.53%; B: -5.649% and -43.68%.
With CC(=O)N1CCC(NC(=O)NCc2ncc(-c3ccccc3)o2)CC1 the screen gave A: 5.978%; B: -17.32%.
With O=C(O)c1ccccc1C1CCN(C2CCN(c3ccccc3)CC2)C1 (stereo unspecified) the screen gave A: -4.827% and -8.42%; B: -15.02%.
With CC(CC(=O)N1CCCS1(=O)=O)c1ccccc1C(F)(F)F (stereo unspecified) the screen gave A: 7.416%; B: -4.773%.
With CC(C(=O)NCCN1CCOCC1)n1cncn1 (stereo unspecified) the screen gave A: -0.8358%; B: 30.61%.
With Cc1ccc(-c2noc(CN3CCOC(Cn4cccn4)C3)n2)cc1 (stereo unspecified) the screen gave A: 8.338%; B: 15.61%.
With CCOCCCNCc1cc2c(C)cc(C)cc2n2c(=O)n(C)nc12 the screen gave A: -22.03%; B: 11.33%.
With Cc1cnn(CC2CCCCN2C(=O)CN(C)C2CC2)c1 (stereo unspecified) the screen gave A: -18.48%; B: -44.9%.
With CCCc1noc(-c2cn(CC(=O)N(CC)CC)nn2)n1 the screen gave A: -7.016%; B: -29.26%.
With CC(C)=CCS(=O)(=O)Cc1noc(CC(C)C)n1 the screen gave A: 25.76%; B: 18.07%.
With OC1(CNCCSc2ccccn2)CCCNC1 (stereo unspecified) the screen gave A: 16.55%; B: -1.218%.
With O=C(c1ccc(-n2cccn2)nc1)N1CCC(c2ccc(O)cc2)CC1 the screen gave A: 7.181%; B: 1.122% and 9.508%.
With CCc1oc2ccc(NS(C)(=O)=O)cc2c1C(=O)OC the screen gave A: 1.406%; B: -1.18% and -13.39%.
With Cc1cc(C)nc(N2CCC(CNC(=O)c3cnccn3)CC2)n1 the screen gave A: -4.038%; B: 8.684%.
With COc1cc(CN2CCCC2)ccc1Oc1ccc2c(c1)CC(CN)O2 (stereo unspecified) the screen gave A: -13.13%; B: 22.65% and 15.71%.
With CC(Cn1cccn1)NC(=O)NCc1cccnc1 (stereo unspecified) the screen gave A: 6.916%; B: 12.45%.
With CCCN(C)S(=O)(=O)N1CCCC1c1ccco1 (stereo unspecified) the screen gave A: 10.25%; B: 1.635%.
With CC(C)C(=O)N1CCc2c(CN(C)Cc3ccco3)cncc2C1.Cl.Cl the screen gave A: -9.01%; B: 9.643%.

2 of the entries, repeated:

| compound | A | B |
|---|---|---|
| `CC(CC(=O)N1CCCS1(=O)=O)c1ccccc1C(F)(F)F` (stereo unspecified) | 7.416 | -4.773 |
| `CCCN(C)S(=O)(=O)N1CCCC1c1ccco1` (stereo unspecified) | 10.25 | 1.635 |